The values below come from article PMC8870583, “EGCG Promotes FUS Condensate Formation in a Methylation-Dependent Manner” (Cells, 2022).

Amino acid sequences for entries named in this document (tags omitted). Residues count along the entry.
UniProt P35637, 454-526: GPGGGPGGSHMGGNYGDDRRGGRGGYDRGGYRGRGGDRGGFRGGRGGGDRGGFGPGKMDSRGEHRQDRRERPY

In the data set the target is meFUS RGG3PY (PRMT1-methylated) (UniProt P35637). Briefly: NMR 1H-15N HSQC titration. To be noted: 30 uM protein, 0-7.5 uM RNA, arginine-methylated, CSPs higher, binding stated stronger than unmethylated; 50 mM sodium succinate pH 6.0, 150 mM NaCl, 2 mM TCEP, 0.04% NaN3, 10% D2O, 25 C; recombinant protein; residues 454-526; protein details: His6-protein A tag removed by TEV.

For at least one entry, the source does not settle the construct or the ends of the probe.

Turning to UGUGUGUGUGUGUGUGUGUGUGUG [(UG)12 RNA], the binding result is “binds”.
